From doi:10.1101/2020.08.29.273516 come the findings set out here.

Amino acid sequences for entries named in this document (tags omitted). Residues count along the entry.
UniProt O60603, residues 639-782: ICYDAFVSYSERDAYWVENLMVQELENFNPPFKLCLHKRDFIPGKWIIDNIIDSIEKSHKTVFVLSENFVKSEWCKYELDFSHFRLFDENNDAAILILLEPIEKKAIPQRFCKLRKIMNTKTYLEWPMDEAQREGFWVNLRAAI
UniProt O00206, residues 676-835: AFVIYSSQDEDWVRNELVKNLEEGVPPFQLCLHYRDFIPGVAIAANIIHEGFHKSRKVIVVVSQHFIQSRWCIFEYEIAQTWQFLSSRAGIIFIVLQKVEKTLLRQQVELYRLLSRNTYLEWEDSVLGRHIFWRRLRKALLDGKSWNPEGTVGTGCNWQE
UniProt P58753, residues 84-213: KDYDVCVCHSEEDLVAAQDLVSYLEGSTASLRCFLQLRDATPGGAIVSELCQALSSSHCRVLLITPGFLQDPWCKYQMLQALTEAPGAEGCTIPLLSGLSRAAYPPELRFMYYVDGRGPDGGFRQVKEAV
UniProt Q86XR7, residues 73-229: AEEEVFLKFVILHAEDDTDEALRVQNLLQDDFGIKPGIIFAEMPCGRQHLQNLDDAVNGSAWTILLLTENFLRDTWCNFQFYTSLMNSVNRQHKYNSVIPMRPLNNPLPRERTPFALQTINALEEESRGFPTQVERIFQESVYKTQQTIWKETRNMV
UniProt Q99836, residues 159-293: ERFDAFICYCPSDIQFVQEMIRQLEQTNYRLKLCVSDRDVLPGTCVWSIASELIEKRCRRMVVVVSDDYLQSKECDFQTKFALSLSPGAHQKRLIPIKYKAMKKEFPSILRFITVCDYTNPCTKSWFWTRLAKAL

Read-outs that look alike come from different tables or passages of the source. These are yes or no findings as the source states them, for the method shown. For some assays here: Binding calls can cover weak binding; strength is not graded here. For some assays here: Sequences can lack the tags named with a protein.

What all share (experiment): pull-down
The target of assay [1] is GST-tagged TIR module of TLR2 (UniProt O60603).
Assay [2] deals with T1, GST-tagged TIR module of TLR1 (UniProt Q15399).
T1 sequence: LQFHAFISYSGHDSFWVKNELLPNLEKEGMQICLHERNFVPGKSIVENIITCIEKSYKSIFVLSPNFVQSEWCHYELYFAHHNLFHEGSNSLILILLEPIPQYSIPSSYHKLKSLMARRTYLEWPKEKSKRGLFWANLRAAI

For assay [3], the target named is GST-TLR4-TIR (GST-tagged cytoplasmic Toll/interleukin-1 receptor module of TLR4, aa 676-835) (UniProt O00206).
The target of assay [4] is GST-tagged TIR module of the adaptor Mal (UniProt P58753).
The target of assay [5] is T2, GST-tagged TIR module of TLR6 (UniProt Q9Y2C9).
T2 sequence: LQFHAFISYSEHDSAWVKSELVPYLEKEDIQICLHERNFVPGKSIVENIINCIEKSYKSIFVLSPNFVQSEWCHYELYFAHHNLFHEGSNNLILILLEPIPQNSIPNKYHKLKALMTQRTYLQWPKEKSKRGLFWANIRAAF

Assay [6] has as its target GST-tagged TIR module of the adaptor TRAM (UniProt Q86XR7).
In assay [7] the target is GST-tagged TIR module of the adaptor MyD88 (UniProt Q99836).
The target of assay [8] is GST-TLR4-TIR (GST-tagged cytoplasmic Toll/interleukin-1 receptor module of TLR4, aa 676-835) (UniProt O00206). The source holds these as a separate data set.

Take “His-GIV-CT (recombinant C-terminus of GIV) (from UniProt Q3V6T2-3) (domain or fragment)”: the binding entry is “no binding” in assay [1]; “no binding” in assay [2]; “binds” in assay [3]; “binds” in assay [4]; “no binding” in assay [5]; “binds” in assay [6]. Also, the figures for the binding result in assay [7] and in assay [8] were “no binding” and “binds”, respectively.
